# Where “and” joins values, the source holds several entries; their conditions need not be identical. Equal entries are not always repeated. Structures can show the parent of a compound that is named as a salt. ± gives the standard deviation of the averaged measurements. Some of the results follow. Baselines shift from plate to plate; read single values as rough.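 Assay uses culture-activated primary human stellate myofibroblasts; lipid droplet recovery indicates inactivation. Measured: proportion of Hoechst-counted cells over a plate-specific Bodipy cutoff, duplicate wells, DMSO and nortriptyline as per-plate negative and positive controls. A hit scores, control-normalized, above the plate's top-tenth-percentile nortriptyline wells or ranks among its three best wells. Final well concentrations not reported.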
# Tested on: primary human hepatic stellate cells (donor 1)
# Assay: percent Bodipy-positive cells; higher = more lipid droplet accumulation
# Details: 48 h
# [1] = library stock concentration: 10 mM
# [2] = library stock concentration: 3.33 mM
# [3] = library stock concentration: 9.9 mM
# [4] = library stock concentration: 8.3 mM
# [5] = library stock concentration: 1 mM
# [6] = library stock concentration: 80 uM
# [7] = library stock concentration: 400 uM
# [8] = library stock concentration: 2 mM
compound,measurement,setting,value
CC(N)Cc1ccc(O)cc1 (stereo not given) [Hydroxyamphetamine hydrobromide],percent Bodipy-positive cells,[1],29.2 ± 8.9%
"CN1CCC2(C)c3cc(O)ccc3N(C)C12 (single isomer, unassigned; (-)) [(-)-Eseroline fumarate salt]",percent Bodipy-positive cells,,31.808 ± 0.015%
O=C1NC(=O)c2c1c1c3ccccc3n3c1c1c2c2ccccc2n1[C@H]1CC[C@@H]3O1,percent Bodipy-positive cells,[2],68.2 ± 7.2%
C=C1[C@@H](C)[C@H]2[C@H](Cc3ccccc3)NC(=O)C23[C@H](OC(C)=O)/C=C/[C@](C)(O)C(=O)[C@@H](C)C/C=C/[C@H]3[C@@H]1O (stereo not given in full) [Cytochalasin D],percent Bodipy-positive cells,[3],99.1 ± 1.3%
Cc1onc(O)c1CC(N)C(=O)O (racemic),percent Bodipy-positive cells,[1],6.24 ± 2.9%
Cc1onc(O)c1CC(N)C(=O)O (racemic) [(RS)-AMPA hydrobromide],percent Bodipy-positive cells,[1],8.88 ± 0.89%
CN(C)C(=S)SSC(=S)N(C)C [Thiram],percent Bodipy-positive cells,[4],96.3 ± 2.1%
C=C/C=C\CC1=C(C)[C@@H](OC(=O)[C@@H]2[C@@H](/C=C(\C)C(=O)OC)C2(C)C)CC1=O.C=C/C=C\CC1=C(C)[C@@H](OC(=O)[C@@H]2[C@@H](C=C(C)C)C2(C)C)CC1=O,percent Bodipy-positive cells,[1],39.9 ± 10%
NCc1cccnc1,percent Bodipy-positive cells,[1],25.9 ± 4%
CC(NC(C)(C)C)C(=O)c1cccc(Cl)c1 (stereo not given) [Bupropion],percent Bodipy-positive cells,library stock concentration: 7.2 mM,47 ± 11%
same,percent Bodipy-positive cells,[1],47.4 ± 4.6%
CC(NC(C)(C)C)C(=O)c1cccc(Cl)c1 (stereo not given) [Amfebutamone],percent Bodipy-positive cells,[4],9.55 ± 1.1%
CC(NC(C)(C)C)C(=O)c1cccc(Cl)c1 (stereo not given) [Amfebutamone HCl],percent Bodipy-positive cells,[2],16.3 ± 0.62%
same,percent Bodipy-positive cells,[1],9.12 ± 2.2%
CC(NC(C)(C)C)C(=O)c1cccc(Cl)c1 (stereo not given),percent Bodipy-positive cells,[1],17.8 ± 0.89%
CC(NC(C)(C)C)C(=O)c1cccc(Cl)c1 (stereo not given) [Bupropion hydrochloride],percent Bodipy-positive cells,,25.3 ± 9.1%
same,percent Bodipy-positive cells,[1],38.5 ± 6.9%
N[C@]1(C(=O)O)CC[C@H](C(=O)O)C1,percent Bodipy-positive cells,[1],32.8 ± 6.3%
Oc1ccc2c3c1O[C@H]1c4[nH]c5ccccc5c4C[C@@]4(O)[C@@H](C2)N(CC2CC2)CC[C@]314 [Naltrindole HCl],percent Bodipy-positive cells,library stock concentration: 4.8 mM,41.2 ± 9.7%
Oc1ccc2c3c1O[C@H]1c4[nH]c5ccccc5c4C[C@@]4(O)[C@@H](C2)N(CC2CC2)CC[C@]314 [Naltrindole],percent Bodipy-positive cells,[1],78.5 ± 5.5%
CN(C)[C@@H]1C(=O)C(C(N)=O)=C(O)[C@@]2(O)C(=O)C3=C(O)c4c(O)cccc4[C@@](C)(O)[C@H]3C[C@@H]12 [Tetracycline HCl],percent Bodipy-positive cells,[2],11.8 ± 5.8%
same,percent Bodipy-positive cells,[1],11.3 ± 6.8%
"Cc1cc(C)cc(C(=O)OC2C[C@H]3CC[C@@H](C2)N3C)c1 (stereo not given in full) [Tropanyl-3,5-dimethylbenzoate]",percent Bodipy-positive cells,[1],49.2 ± 12%
C[C@@H]1O[C@@H](O[C@H]2CC[C@]3(C=O)[C@H]4CC[C@]5(C)[C@@H](C6=CC(=O)OC6)CC[C@]5(O)[C@@H]4CC[C@]3(O)C2)[C@H](O)[C@H](O)[C@H]1O [Convallatoxin],percent Bodipy-positive cells,[1],87.7 ± 3.2%
CCCCC/C=C\C/C=C\CCCCCCCC(=O)NCCO [Linoleoyl Ethanolamide],percent Bodipy-positive cells,[5],6.71 ± 1.9%
CN1[C@@H]2C[C@@H](OC(=O)[C@H](CO)c3ccccc3)C[C@H]1[C@@H]1O[C@@H]12 [(-)-Scopolamine hydrobromide],percent Bodipy-positive cells,[1],16.5 ± 1.6%
CN1[C@@H]2C[C@@H](OC(=O)[C@H](CO)c3ccccc3)C[C@H]1[C@@H]1O[C@@H]12 [Scopolamine HBr],percent Bodipy-positive cells,[2],7.415 ± 0.012%
same,percent Bodipy-positive cells,library stock concentration: 6.6 mM,7.25 ± 2.7%
same,percent Bodipy-positive cells,[1],13.7 ± 1.6%
CN1[C@@H]2C[C@@H](OC(=O)[C@H](CO)c3ccccc3)C[C@H]1[C@@H]1O[C@@H]12 [Scopolamine hydrochloride],percent Bodipy-positive cells,,8.59 ± 0.44%
CN1[C@@H]2C[C@@H](OC(=O)[C@H](CO)c3ccccc3)C[C@H]1[C@@H]1O[C@@H]12 [Scopolamine hydrobromide],percent Bodipy-positive cells,library stock concentration: 5.2 mM,19.2 ± 3%
same,percent Bodipy-positive cells,[1],11.5% and 10.5%
O=C(O)C1=CCCN(CCOC(c2ccc(C(F)(F)F)cc2)c2ccc(C(F)(F)F)cc2)C1 [CI 966 hydrochloride],percent Bodipy-positive cells,[1],8.65 ± 2.5%
CN[C@@H](C)[C@@H](O)c1ccccc1 [Pseudoephedrine hydrochloride],percent Bodipy-positive cells,[3],16.3 ± 5.4%
same,percent Bodipy-positive cells,[1],10.8 ± 0.14%
C[C@]12CC[C@H](O)C[C@H]1CC[C@@H]1[C@@H]2C[C@@H](O)[C@]2(C)[C@@H](C3=CC(=O)OC3)CC[C@]12O [Digoxigenin],percent Bodipy-positive cells,,70.4 ± 7.2%
C/C(=C\c1csc(C)n1)[C@@H]1C[C@@H]2O[C@@H]2CCC[C@H](C)[C@H](O)[C@@H](C)C(=O)C(C)(C)[C@@H](O)CC(=O)O1 [Epothilone A],percent Bodipy-positive cells,[2],11.2 ± 3.3%
same,percent Bodipy-positive cells,[1],19.4 ± 5.1%
COC1=C[C@@H]2[C@@H]3Cc4ccc(OC)c(O)c4[C@]2(CCN3C)CC1=O [Sinomenine],percent Bodipy-positive cells,[2],6.59 ± 1.7%
same,percent Bodipy-positive cells,[1],14.1 ± 4%
CCCCC/C=C\C/C=C\C/C=C\C=C\[C@H](CCCC(=O)O)OO,percent Bodipy-positive cells,library stock concentration: 100 uM,12.6 ± 9.4%
COc1ccc(N(C(=O)Oc2c(C)cccc2C)c2ccnc(Nc3ccc(N4CCN(C)CC4)cc3)n2)c(OC)c1,percent Bodipy-positive cells,[6],14.3 ± 0.16%
same,percent Bodipy-positive cells,[7],26.5 ± 2.4%
same,percent Bodipy-positive cells,[8],18.3 ± 12%
same,percent Bodipy-positive cells,[2],83.6 ± 9.9%
same,percent Bodipy-positive cells,[1],98.9% and 100%
CN(C)CCc1ccc(O)cc1 [Hordenine],percent Bodipy-positive cells,[2],10 ± 2.3%
same,percent Bodipy-positive cells,[1],15.5 ± 7.5%
CC[C@@H]1C=CC=CC[C@H](C)[C@@H](O)[C@@H](C)C(=O)[C@H](C)[C@@H](O)[C@H](C)C(=O)[C@H](C)[C@@H](O)[C@H](C)C=CC(=O)O[C@H]2[C@@H](C)[C@@H](CC1)O[C@@]1(CC[C@@H](C)[C@@H](C[C@H](C)O)O1)[C@@H]2C,percent Bodipy-positive cells,[1],13.5 ± 4.6%
CCOC(=O)C1(c2ccccc2)CCN(CCC(C#N)(c2ccccc2)c2ccccc2)CC1,percent Bodipy-positive cells,[1],28.5 ± 7.8%
NC1=NC(=O)C(c2ccccc2)O1 (stereo not given) [Pemoline],percent Bodipy-positive cells,[1],10.7 ± 1.8%
CC(=O)[C@H]1CC[C@H]2[C@@H]3CC[C@H]4C[C@](C)(O)CC[C@]4(C)[C@H]3CC[C@]12C [Ganaxolone],percent Bodipy-positive cells,[1],30.5% and 9.33%
Cc1sc2ccccc2c1CC1=NCCN1 [Benazoline oxalate],percent Bodipy-positive cells,[1],76.9 ± 1.2%
CCCCCCC(C)(C)c1cc(OC)c2c(c1)OC(C)(C)[C@@H]1CC=C(C)C[C@@H]21,percent Bodipy-positive cells,[5],7.7 ± 1.7%
C[C@@H]1O[C@@H](O[C@H]2C[C@@H](O)[C@]3(CO)[C@H]4[C@H](O)C[C@]5(C)[C@@H](C6=CC(=O)OC6)CC[C@]5(O)[C@@H]4CC[C@]3(O)C2)[C@H](O)[C@H](O)[C@H]1O [Ouabain],percent Bodipy-positive cells,[1],98.7 ± 1.2%
C[C@]12CCC3C(CC[C@]4(O)C[C@@H](O)CC[C@]34C=O)[C@@]1(O)CCC2C1=CC(=O)OC1 (stereo not given in full) [Strophanthidin],percent Bodipy-positive cells,[1],90.8 ± 2%
"NCC(CC(=O)O)c1ccc(Cl)cc1 (racemic) [Baclofen (R,S)]",percent Bodipy-positive cells,,24.1 ± 7.7%
COc1cc(C(=O)OC2CC3CCC(C2)N3C)ccc1O (stereo not given) [Fillalbin],percent Bodipy-positive cells,,10.8 ± 0.56%
N[C@@H]1C[C@H]1c1ccccc1 [Tranylcypromine (2-PCPA) HCl],percent Bodipy-positive cells,[2],6.04 ± 5%
same,percent Bodipy-positive cells,[1],29.5 ± 9.9%
N[C@@H]1C[C@H]1c1ccccc1 [Tranylcypromine hydrochloride],percent Bodipy-positive cells,,36.6 ± 7%
same,percent Bodipy-positive cells,[1],23.4% and 14.7%
COc1ccc2c(c[n+](C)c3c4cc5c(cc4ccc23)OCO5)c1OC.Cl [Chelerythrine chloride],percent Bodipy-positive cells,[8],99.519 ± 0.037%
O=C(NC(COc1ccc2[nH]c(=O)[nH]c2c1)c1ccccc1)c1cccn(Cc2ccc(F)c(F)c2)c1=O (stereo not given),percent Bodipy-positive cells,[6],22.3 ± 12%
same,percent Bodipy-positive cells,[7],9.4 ± 2%
same,percent Bodipy-positive cells,[8],11.9 ± 7.1%
same,percent Bodipy-positive cells,[1],12.9 ± 0.23%
c1cc2cc(N3CCNCC3)ccc2cn1 [6-piperazin-1-yl-Isoquinoline (hydrochloride)],percent Bodipy-positive cells,[5],10.9 ± 4.4%
O[C@H]1[C@H](O)[C@@H](O)CN2CC[C@H](O)[C@H]12 [Castanospermine],percent Bodipy-positive cells,[1],7.49 ± 0.67%
same,percent Bodipy-positive cells,library stock concentration: 26.4 mM,23.3 ± 0.87%
[O-][n+]1ccccc1[S-].[O-][n+]1ccccc1[S-].[Zn+2] [Pyrithione zinc],percent Bodipy-positive cells,library stock concentration: 6.3 mM,78.4 ± 17%
same,percent Bodipy-positive cells,[1],32.1 ± 1.4%
CO[C@H]1CC[C@@H](O[C@H]2C[C@H]([C@]3(C)CC[C@]4(C[C@H](O)[C@@H](C)[C@@H]([C@@H](C)/C=C(\C)C(=O)[C@H](C)C[C@H](C)C(=O)O)O4)O3)O[C@]3(O[C@@H]([C@H]4O[C@@](O)(CO)[C@H](C)C[C@@H]4C)C[C@@H]3C)[C@@H]2C)O[C@@H]1C [Nanchangmycin],percent Bodipy-positive cells,[2],94.8 ± 2.4%
same,percent Bodipy-positive cells,[1],98.6 ± 1.9%
CC1=C2C[C@H]3[C@@H](CC=C4C[C@@H](O)CC[C@@]43C)[C@@H]2CC[C@]12O[C@@H]1C[C@H](C)CN[C@H]1[C@H]2C [Cyclopamine],percent Bodipy-positive cells,library stock concentration: 12.1 mM,31.2 ± 3%
CCCCC/C=C\C/C=C\C/C=C\C/C=C\CCCC(=O)N[C@@H](CO)C(=O)O [N-Arachidonoyl-L-Serine],percent Bodipy-positive cells,[5],8.73 ± 2.5%
CC(C)NCC(O)c1ccccc1Cl (stereo not given) [Clorprenaline HCl],percent Bodipy-positive cells,[2],12.6 ± 5.2%
same,percent Bodipy-positive cells,[1],37.6 ± 15%
Br.Br.N=C(NCc1ccc(Cl)cc1)SCCCc1c[nH]cn1 [Clobenpropit dihydrobromide],percent Bodipy-positive cells,[1],88.2 ± 1.2%
S=C=Nc1cccc(C2(N3CCCCC3)CCCCC2)c1 [Metaphit],percent Bodipy-positive cells,[1],99 ± 1.5%
CC[C@H]1CN2CC[C@H]1C[C@H]2[C@H](O)c1ccnc2ccc(OC)cc12 [Hydroquinine hydrobromide hydrate],percent Bodipy-positive cells,,34.4 ± 3.4%
FC(F)(F)c1cccc(C2=CCN(CCc3ccc4ccccc4c3)CC2)c1 [Xaliproden hydrochloride],percent Bodipy-positive cells,[1],26.2 ± 6.3%
C=CCN1CC[C@]23CCCC[C@H]2[C@H]1Cc1ccc(O)cc13 [Levallorphan tartrate],percent Bodipy-positive cells,library stock concentration: 7.1 mM,21.2 ± 4.6%
same,percent Bodipy-positive cells,[1],80 ± 6%
O=c1ccc2[nH]cc(C3=CCNCC3)c2[nH]1,percent Bodipy-positive cells,[1],9.97% and 8.03%
CCCCCC=CCC=CCC=CCC=CCCCC(=O)NCC(O)CC(=O)O (stereo not given) [N-Arachidonoyl-3-hydroxy-.gamma.-Aminobutyric Acid],percent Bodipy-positive cells,[5],16.4 ± 5.9%
CCCN1CC[C@@H]2c3cc(O)ccc3CC[C@@H]21 (racemic) [cis(+/-)-8-OH-PBZI hydrobromide],percent Bodipy-positive cells,[1],43.1 ± 1.1%
O=C(O)/C=C/CO [trans-4-Hydroxycrotonic acid],percent Bodipy-positive cells,[1],7.06 ± 0.58%
CC(=O)Nc1cc([As](=O)(O)O)ccc1O [Acetarsol],percent Bodipy-positive cells,library stock concentration: 7.3 mM,12.3 ± 0.73%
same,percent Bodipy-positive cells,[1],17.2 ± 8.2%
Cc1cc2c(C(C)C)c(O)c(O)c(C=O)c2c(O)c1-c1c(C)cc2c(C(C)C)c(O)c(O)c(C=O)c2c1O [Gossypol],percent Bodipy-positive cells,,5.23 ± 1.1%
same,percent Bodipy-positive cells,[2],6.237 ± 0.046%
same,percent Bodipy-positive cells,[1],76.9% and 83%
Cc1cc2c(C(C)C)c(O)c(O)c(C=O)c2c(O)c1-c1c(C)cc2c(C(C)C)c(O)c(O)c(C=O)c2c1O,percent Bodipy-positive cells,[2],5.68 ± 2%
same,percent Bodipy-positive cells,[1],84.2 ± 6.4%
